According to publication PMC10565642:
No constants are given. Whether binding was seen depends on the method and setting. Binding seen in cells or lysates may run through a third protein. Some binding calls cover weakened binding; strength is not graded here. For part of these data: Where a sequence is shown, tags or fusion partners need not be part of it.

T1: FLAG-tagged full-length NLRP1 (wild type) (human) (UniProt Q9C000)
T1 sequence: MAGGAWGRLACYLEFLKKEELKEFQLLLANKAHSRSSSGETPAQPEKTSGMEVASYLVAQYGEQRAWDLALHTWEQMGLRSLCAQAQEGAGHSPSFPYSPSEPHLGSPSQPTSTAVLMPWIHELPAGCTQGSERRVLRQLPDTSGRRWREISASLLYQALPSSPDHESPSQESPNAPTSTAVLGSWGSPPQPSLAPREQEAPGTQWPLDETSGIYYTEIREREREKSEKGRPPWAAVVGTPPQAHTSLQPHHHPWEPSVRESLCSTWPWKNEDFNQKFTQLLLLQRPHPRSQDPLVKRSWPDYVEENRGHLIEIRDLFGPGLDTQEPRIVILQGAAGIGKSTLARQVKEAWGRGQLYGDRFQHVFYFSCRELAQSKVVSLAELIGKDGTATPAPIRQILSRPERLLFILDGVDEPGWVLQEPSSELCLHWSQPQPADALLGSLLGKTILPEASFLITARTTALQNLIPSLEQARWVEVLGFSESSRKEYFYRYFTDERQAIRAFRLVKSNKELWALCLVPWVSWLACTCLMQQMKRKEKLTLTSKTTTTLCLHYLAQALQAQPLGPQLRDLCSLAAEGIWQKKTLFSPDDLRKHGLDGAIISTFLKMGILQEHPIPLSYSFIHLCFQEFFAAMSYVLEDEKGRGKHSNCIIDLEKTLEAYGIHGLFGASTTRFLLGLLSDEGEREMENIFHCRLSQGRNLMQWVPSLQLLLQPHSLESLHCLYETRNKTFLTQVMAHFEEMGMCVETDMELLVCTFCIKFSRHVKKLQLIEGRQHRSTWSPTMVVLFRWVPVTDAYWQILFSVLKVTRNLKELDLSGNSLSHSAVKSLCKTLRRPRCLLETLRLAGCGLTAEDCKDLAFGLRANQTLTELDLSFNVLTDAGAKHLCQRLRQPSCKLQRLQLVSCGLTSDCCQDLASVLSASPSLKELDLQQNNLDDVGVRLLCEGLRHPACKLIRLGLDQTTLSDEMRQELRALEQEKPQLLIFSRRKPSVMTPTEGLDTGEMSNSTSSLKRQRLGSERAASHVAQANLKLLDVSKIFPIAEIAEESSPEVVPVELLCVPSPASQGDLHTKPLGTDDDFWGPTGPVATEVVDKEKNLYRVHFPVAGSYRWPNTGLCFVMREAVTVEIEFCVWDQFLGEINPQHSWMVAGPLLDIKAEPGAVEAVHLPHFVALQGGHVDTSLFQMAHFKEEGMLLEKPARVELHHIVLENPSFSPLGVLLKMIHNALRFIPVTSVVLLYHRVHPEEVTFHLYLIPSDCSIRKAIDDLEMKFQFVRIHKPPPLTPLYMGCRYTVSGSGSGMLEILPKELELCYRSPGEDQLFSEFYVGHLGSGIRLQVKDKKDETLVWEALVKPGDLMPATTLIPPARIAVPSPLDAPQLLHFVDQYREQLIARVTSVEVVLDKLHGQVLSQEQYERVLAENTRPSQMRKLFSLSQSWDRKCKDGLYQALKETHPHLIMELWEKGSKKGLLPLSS

T2: FLAG-tagged full-length NLRP1 S1213A (autoproteolysis deficient) (human) (UniProt Q9C000)
T2 sequence: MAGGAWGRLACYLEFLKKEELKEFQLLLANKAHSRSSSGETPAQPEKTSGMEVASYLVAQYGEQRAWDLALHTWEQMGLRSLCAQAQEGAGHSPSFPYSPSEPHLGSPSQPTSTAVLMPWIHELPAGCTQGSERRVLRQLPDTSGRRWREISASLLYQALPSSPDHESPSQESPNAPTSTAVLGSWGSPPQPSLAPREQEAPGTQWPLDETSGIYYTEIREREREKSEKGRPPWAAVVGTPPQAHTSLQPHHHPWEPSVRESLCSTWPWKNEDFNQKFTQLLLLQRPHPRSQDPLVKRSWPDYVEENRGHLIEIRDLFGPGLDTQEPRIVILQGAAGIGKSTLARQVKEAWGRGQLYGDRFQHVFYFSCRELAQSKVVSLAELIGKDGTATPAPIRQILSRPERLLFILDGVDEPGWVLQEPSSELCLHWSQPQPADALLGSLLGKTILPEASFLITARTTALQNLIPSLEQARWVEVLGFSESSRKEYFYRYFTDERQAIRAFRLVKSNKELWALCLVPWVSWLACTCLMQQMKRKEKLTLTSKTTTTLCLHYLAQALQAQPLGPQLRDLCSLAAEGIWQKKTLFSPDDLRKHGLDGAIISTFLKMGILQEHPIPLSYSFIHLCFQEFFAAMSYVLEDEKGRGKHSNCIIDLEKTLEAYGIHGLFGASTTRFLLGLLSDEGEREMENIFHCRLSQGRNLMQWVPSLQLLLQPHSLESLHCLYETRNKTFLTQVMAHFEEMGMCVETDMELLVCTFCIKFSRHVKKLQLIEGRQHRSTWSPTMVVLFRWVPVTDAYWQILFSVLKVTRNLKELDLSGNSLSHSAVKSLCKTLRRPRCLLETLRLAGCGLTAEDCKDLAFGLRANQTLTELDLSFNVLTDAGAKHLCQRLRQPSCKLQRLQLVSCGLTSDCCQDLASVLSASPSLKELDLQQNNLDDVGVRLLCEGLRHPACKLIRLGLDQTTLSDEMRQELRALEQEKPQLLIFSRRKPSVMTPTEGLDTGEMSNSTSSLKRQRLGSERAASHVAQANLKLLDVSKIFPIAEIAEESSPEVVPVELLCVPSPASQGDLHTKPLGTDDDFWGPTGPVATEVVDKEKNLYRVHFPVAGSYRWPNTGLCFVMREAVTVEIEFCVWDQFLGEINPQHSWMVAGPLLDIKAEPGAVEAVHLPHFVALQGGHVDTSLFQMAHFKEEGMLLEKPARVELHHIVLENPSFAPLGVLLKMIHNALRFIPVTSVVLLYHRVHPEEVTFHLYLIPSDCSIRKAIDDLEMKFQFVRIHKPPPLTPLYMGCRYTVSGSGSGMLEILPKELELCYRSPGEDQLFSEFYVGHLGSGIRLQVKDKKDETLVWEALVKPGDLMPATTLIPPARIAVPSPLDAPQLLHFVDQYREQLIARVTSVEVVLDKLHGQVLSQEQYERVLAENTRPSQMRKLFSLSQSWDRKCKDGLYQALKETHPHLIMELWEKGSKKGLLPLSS

T3: NLR family pyrin domain containing 1 (NLRP1), endogenous (human (endogenous in K562 and M-PBMCs)), Q9C000
T3 chain: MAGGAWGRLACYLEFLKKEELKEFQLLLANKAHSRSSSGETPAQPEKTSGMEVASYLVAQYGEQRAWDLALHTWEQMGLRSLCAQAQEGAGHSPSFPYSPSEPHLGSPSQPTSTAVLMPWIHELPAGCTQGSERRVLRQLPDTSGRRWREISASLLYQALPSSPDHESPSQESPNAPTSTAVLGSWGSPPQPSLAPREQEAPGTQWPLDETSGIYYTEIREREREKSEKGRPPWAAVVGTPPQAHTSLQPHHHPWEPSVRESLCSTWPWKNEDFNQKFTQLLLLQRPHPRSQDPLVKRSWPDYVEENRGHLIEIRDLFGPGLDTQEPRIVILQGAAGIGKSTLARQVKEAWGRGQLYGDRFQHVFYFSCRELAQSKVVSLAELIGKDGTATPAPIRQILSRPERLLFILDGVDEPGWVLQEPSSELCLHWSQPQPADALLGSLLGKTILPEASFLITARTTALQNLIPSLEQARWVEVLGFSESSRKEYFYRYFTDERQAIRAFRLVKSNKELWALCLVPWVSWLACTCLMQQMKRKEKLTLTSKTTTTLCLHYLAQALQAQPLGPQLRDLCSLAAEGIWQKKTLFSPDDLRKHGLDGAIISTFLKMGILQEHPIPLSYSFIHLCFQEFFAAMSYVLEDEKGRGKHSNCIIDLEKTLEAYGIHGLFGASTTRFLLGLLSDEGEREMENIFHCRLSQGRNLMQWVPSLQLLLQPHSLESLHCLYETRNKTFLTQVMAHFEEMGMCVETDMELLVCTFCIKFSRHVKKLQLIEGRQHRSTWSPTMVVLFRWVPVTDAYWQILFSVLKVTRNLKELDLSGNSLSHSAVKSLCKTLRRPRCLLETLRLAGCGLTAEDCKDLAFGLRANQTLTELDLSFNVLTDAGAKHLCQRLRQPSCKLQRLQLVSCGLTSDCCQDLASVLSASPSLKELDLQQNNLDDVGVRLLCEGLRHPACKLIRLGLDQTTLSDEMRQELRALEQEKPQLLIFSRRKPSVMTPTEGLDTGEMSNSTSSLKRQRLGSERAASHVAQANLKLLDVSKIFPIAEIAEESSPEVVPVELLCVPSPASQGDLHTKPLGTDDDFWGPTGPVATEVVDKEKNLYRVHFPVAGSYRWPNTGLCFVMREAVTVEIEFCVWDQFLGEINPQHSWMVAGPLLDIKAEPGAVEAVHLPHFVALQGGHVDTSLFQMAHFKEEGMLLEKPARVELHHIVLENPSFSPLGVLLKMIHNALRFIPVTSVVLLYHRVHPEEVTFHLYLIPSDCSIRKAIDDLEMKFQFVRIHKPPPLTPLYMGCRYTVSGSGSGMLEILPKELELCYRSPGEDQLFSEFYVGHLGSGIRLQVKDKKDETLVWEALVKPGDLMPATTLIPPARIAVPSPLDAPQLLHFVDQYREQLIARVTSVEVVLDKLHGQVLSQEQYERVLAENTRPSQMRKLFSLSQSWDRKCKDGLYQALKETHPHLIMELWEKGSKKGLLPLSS

B1: LRRFIP1 in HEK293 cells (protein, UniProt Q32MZ4 1-808)
chain: MTSPAAAQSREIDCLSPEAQKLAEARLAAKRAARAEAREIRMKELERQQKEEDSERYSRRSRRNTSASDEDERMSVGSRGSLRVEERPEKDFTEKGSRNMPGLSAATLASLGGTSSRRGSGDTSISIDTEASIREIKELNELKDQIQDVEGKYMQGLKEMKDSLAEVEEKYKKAMVSNAQLDNEKTNFMYQVDTLKDMLLELEEQLAESRRQYEEKNKEFEREKHAHSILQFQFAEVKEALKQREEMLEKHGIILNSEIATNGETSDTLNNVGYQGPTKMTKEELNALKSTGDGTLGRASEVEVKNEIVANVGKREILHNTEKEQHTEDTVKDCVDIEVFPAGENTEDQKSSEDTAPFLGTLAGATYEEQVQSQILESSSLPENTVQVESNEVMGAPDDRTRTPLEPSNCWSDLDGGNHTENVGEAAVTQVEEQAGTVASCPLGHSDDTVYHDDKCMVEVPQELETSTGHSLEKEFTNQEAAEPKEVPAHSTEVGRDHNEEEGEETGLRDEKPIKTEVPGSPAGTEGNCQEATGPSTVDTQNEPLDMKEPDEEKSDQQGEALDSSQKKTKNKKKKNKKKKSPVPVETLKDVKKELTYQNTDLSEIKEEEQVKSTDRKSAVEAQNEVTENPKQKIAAESSENVDCPENPKIKLDGKLDQEGDDVQTAAEEVLADGDTLDFEDDTVQSSGPRAGGEELDEGVAKDNAKIDGATQSSPAEPKSEDADRCTLPEHESPSQDISDACEAESTERCEMSEHPSQTVRKALDSNSLENDDLSAPGREPGHFNPESREDTRGGNEKGKSKEDCTMS
B2: Dipeptidyl Peptidase 9 (DPP9), endogenous, Q86TI2 1-863 (enzyme)
chain: MATTGTPTADRGDAAATDDPAARFQVQKHSWDGLRSIIHGSRKYSGLIVNKAPHDFQFVQKTDESGPHSHRLYYLGMPYGSRENSLLYSEIPKKVRKEALLLLSWKQMLDHFQATPHHGVYSREEELLRERKRLGVFGITSYDFHSESGLFLFQASNSLFHCRDGGKNGFMVSPMKPLEIKTQCSGPRMDPKICPADPAFFSFINNSDLWVANIETGEERRLTFCHQGLSNVLDDPKSAGVATFVIQEEFDRFTGYWWCPTASWEGSEGLKTLRILYEEVDESEVEVIHVPSPALEERKTDSYRYPRTGSKNPKIALKLAEFQTDSQGKIVSTQEKELVQPFSSLFPKVEYIARAGWTRDGKYAWAMFLDRPQQWLQLVLLPPALFIPSTENEEQRLASARAVPRNVQPYVVYEEVTNVWINVHDIFYPFPQSEGEDELCFLRANECKTGFCHLYKVTAVLKSQGYDWSEPFSPGEDEFKCPIKEEIALTSGEWEVLARHGSKIWVNEETKLVYFQGTKDTPLEHHLYVVSYEAAGEIVRLTTPGFSHSCSMSQNFDMFVSHYSSVSTPPCVHVYKLSGPDDDPLHKQPRFWASMMEAASCPPDYVPPEIFHFHTRSDVRLYGMIYKPHALQPGKKHPTVLFVYGGPQVQLVNNSFKGIKYLRLNTLASLGYAVVVIDGRGSCQRGLRFEGALKNQMGQVEIEDQVEGLQFVAEKYGFIDLSRVAIHGWSYGGFLSLMGLIHKPQVFKVAIAGAPVTVWMAYDTGYTERYMDVPENNQHGYEAGSVALHVEKLPNEPNRLLILHGFLDENVHFFHTNFLVSQLIRAGKPYQLQIYPNERHSIRCPESGEHYEVTLLHFLQEYL

What was measured:
[1] = target: T1, FLAG-tagged full-length NLRP1 (wild type) (human); assay: co-IP; HEK293T cells transfected with FLAG-tagged NLRP1 constructs; lysis in 50 mM Tris-HCl, 150 mM NaCl, 1% NP40; 1 mg lysate with ANTI-FLAG M2 resin, 2 h at 4°C
[2] = target: T2, FLAG-tagged full-length NLRP1 S1213A (autoproteolysis deficient) (human); assay: as above
[3] = target: T3, NLR family pyrin domain containing 1 …; assay: co-IP; endogenous proteins in K562 cells (Appendix Fig S4C); which protein was precipitated is not told; conditions: remark: other sources report otherwise

| Binder | binding [1] | binding [2] | binding [3] |
| --- | --- | --- | --- |
| B1 | binds | binds | – |
| B2 | – | – | no binding |
